This experiment deals with T1, IL-27Rα (mouse) (UniProt O70394).
T1 sequence (looked up): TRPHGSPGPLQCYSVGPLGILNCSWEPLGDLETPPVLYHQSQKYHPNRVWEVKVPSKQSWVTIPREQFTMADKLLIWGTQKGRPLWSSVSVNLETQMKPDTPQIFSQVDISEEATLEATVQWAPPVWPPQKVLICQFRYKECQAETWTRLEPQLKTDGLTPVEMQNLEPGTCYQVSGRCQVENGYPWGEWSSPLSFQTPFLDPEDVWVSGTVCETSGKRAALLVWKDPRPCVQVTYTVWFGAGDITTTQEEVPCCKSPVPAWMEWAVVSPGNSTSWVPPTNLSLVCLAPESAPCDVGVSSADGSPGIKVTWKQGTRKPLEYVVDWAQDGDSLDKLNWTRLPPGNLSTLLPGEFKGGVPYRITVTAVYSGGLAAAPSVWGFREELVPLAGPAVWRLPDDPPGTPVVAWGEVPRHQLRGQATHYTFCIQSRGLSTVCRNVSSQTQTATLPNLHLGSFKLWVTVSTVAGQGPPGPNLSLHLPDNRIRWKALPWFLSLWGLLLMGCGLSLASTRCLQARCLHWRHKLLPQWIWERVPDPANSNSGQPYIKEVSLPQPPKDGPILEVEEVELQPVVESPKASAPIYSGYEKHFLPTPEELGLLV
As to the kind of experiment: reciprocal co-immunoprecipitation from activated B-cells.

Protein sequences, listed by entry. Tags and fused reporters are not part of them. Residues count along the entry.
UniProt P97378, residues 24-874: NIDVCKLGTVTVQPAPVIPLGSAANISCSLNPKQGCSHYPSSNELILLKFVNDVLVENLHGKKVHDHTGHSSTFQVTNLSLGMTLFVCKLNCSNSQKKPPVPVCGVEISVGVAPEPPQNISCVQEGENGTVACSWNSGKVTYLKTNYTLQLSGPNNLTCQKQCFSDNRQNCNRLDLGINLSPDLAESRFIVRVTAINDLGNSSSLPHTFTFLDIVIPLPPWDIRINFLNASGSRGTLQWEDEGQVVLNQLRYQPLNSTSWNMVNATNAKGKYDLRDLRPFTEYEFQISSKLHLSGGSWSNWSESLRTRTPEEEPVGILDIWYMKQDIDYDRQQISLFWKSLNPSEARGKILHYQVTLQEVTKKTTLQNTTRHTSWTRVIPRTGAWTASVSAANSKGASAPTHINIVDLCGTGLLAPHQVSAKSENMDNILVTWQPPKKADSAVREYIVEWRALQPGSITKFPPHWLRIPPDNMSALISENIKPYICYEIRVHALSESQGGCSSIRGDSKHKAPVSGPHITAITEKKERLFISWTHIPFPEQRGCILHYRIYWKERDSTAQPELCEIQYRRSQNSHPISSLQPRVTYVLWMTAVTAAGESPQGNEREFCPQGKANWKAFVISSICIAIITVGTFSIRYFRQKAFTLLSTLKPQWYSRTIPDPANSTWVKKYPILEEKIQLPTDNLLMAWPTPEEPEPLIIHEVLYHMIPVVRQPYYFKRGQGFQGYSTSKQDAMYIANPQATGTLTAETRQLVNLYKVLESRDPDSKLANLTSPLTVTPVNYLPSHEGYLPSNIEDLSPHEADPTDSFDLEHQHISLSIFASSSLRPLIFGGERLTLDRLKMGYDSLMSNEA

Results are given in words; binding and its absence hold for the method and conditions named. Binding seen in cells or lysates may run through a third protein. Some results given as binding are weak or reduced against the parent protein; the word gives no strength.

Turning to “IL-12Rβ2 (from UniProt P97378 24-874) (receptor)”, the binding result was “binds”.
